Test systems include RLBP1 (human); RLBP1L1 (human); RNASE8 (human); RNF11 (human); RNF111 (human); RNF141 (human); ROM1 (human); RP11-49G10.8 (human); RPA2 (human); RPLP2 (human); RRN3 (human); RTN4 (human).
Assay in all cases: protein microarray (ProtoArray v5.0), streptavidin-Alexa Fluor 647
What all share (conditions): 3'-biotin; 20 mM Tris (pH 7.5), 5 mM MgCl2, 100 mM KCl, 0.1% Tween-20, A/T-rich and random oligonucleotide blockers; temperature not stated; high values mean tight binding

Experiment [1] deals with RING finger and WD repeat domain-containing protein 3 (human).
The subject of experiment [2] is RING finger protein 122 (human).
The target of the next experiment is RIT1 (UniProt Q92963).
In the next experiment the target is T1, RIT2 (UniProt Q99578).
T1 sequence: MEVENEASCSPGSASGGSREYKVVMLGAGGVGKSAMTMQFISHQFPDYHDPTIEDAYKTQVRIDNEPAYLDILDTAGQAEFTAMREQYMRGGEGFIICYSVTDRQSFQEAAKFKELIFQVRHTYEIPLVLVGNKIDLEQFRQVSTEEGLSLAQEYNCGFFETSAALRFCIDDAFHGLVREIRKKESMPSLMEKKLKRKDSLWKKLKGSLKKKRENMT

Another experiment concerns the target RPL35 (UniProt P42766).
The target of a further experiment is RPS20 (UniProt P60866).
The target in another experiment is RSBN1L (UniProt Q6PCB5).
The next experiment addresses T2, RTN1 (UniProt Q16799).
T2 sequence: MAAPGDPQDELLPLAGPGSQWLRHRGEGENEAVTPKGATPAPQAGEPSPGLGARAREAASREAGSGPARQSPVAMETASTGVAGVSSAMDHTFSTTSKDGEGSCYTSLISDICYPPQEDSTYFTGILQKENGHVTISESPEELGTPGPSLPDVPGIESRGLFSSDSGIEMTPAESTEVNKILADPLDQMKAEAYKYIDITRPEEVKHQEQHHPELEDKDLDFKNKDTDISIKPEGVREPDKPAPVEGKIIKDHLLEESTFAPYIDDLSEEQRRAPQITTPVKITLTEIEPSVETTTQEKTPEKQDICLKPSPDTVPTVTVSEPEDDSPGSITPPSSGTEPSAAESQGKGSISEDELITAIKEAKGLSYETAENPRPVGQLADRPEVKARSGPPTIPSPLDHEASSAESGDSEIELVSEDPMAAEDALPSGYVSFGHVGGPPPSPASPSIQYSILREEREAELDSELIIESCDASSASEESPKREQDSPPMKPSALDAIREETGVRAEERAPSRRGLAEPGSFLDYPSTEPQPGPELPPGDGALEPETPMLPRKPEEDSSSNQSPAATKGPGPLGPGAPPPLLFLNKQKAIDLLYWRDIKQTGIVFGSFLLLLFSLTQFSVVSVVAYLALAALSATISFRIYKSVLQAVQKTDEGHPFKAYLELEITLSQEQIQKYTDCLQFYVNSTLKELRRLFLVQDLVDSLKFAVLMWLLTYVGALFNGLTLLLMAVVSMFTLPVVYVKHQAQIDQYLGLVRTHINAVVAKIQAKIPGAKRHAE

The list shows a part of the results. For some assays here: The exact form of the protein is not confirmed.

Take “GGGGACAGGGGTATGGGGAGGGG [G4-3 biotinylated (CtG)]”: the binding signal in experiment [1] was -0.284 z-score; in experiment [2], -0.335 z-score; in the experiment with RIT1, 6.28 z-score; in the experiment with RIT2, 5.52 z-score; in the experiment with RLBP1 (human) it was -0.329 z-score; in the experiment on RLBP1L1 (human) it was -0.329 z-score. Also, the binding signal was -0.326 z-score with RNASE8 (human); -0.334 z-score with RNF11 (human); -0.324 z-score in the experiment on RNF111 (human); -0.344 z-score with RNF141 (human); -0.299 z-score in the experiment on ROM1 (human); -0.324 z-score in the experiment with RP11-49G10.8 (human). Besides, the binding signal is -0.328 z-score in the experiment with RPA2 (human); 3.25 z-score with RPL35; -0.338 z-score in the experiment on RPLP2 (human); 3.31 z-score in the experiment with RPS20; -0.323 z-score in the experiment on RRN3 (human); 4.53 z-score with RSBN1L. The binding signal in the experiment with RTN1 was -0.321 z-score; in the experiment on RTN4 (human) it was -0.318 z-score.

These data come from article PMC5996148.
